Source: US8394828B2 (Janssen Pharmaceutica, NV, priority 2003, dated 2013)
Structures were worked out from names or drawings and are uncertain.

Chains of the proteins cited; added tags and fusions are not shown.
UniProt Q8NER1, whole entry: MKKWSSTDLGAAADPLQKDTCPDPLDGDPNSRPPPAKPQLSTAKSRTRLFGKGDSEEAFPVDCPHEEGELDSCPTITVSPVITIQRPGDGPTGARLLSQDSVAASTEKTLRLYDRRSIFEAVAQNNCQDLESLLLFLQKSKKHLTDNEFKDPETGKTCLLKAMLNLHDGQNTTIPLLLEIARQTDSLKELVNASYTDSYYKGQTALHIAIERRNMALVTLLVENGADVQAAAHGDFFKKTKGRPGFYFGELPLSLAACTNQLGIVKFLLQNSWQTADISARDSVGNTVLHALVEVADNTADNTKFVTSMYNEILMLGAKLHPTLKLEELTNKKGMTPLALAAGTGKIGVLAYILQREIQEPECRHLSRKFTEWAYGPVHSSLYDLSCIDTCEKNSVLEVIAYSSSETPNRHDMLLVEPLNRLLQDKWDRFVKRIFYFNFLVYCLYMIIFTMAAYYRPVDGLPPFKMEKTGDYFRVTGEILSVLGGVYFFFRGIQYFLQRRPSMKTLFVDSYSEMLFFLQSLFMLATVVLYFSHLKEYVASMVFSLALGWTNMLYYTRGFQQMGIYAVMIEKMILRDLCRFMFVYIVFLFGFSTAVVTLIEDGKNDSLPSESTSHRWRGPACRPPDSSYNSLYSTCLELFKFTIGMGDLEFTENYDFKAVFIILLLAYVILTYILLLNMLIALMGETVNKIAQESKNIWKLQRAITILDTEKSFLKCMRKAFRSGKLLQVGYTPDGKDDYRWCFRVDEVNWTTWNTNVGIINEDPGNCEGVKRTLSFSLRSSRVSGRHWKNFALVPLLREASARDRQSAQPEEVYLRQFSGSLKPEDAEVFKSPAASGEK

How the values were obtained:
human VR1 [1] = biological target: T1, human VR1 (Homo sapiens, UniProt Q8NER1); assay: Human VR1 functional assay (intracellular Ca++, FLIPR, capsaicin challenge); format: cell-based; details: read-out: FLIPR functional assay IC50 hVR1
human VR1 [2] = biological target: T1, human VR1; assay: Human VR1 [3H] RTX binding assay; details: read-out: 3H-RTX binding assay Ki hVR1

CCCCC(C)(C)c1ccc(CCC(=O)Nc2cnc3ccccc3c2)cc1
IC50 (human VR1 [1]): 114 nM | Ki (human VR1 [2]): 40.3 nM
